# Inconclusive results, whose numbers are uncertain, are shown with a selection of clear calls. Entries that show only a call come without a potency. For some assays here: A potency beside an inconclusive call is a rough fit, not a confirmed value. For some assays here: A note “side channel” means that the fit belongs to a control or component signal, not to the main read-out. Activity calls are given as the source filed them. Unless noted, calls follow the shape of the dose curve; as a rule, active = well fitted curve in the direction sought with a large enough effect; inconclusive = small, poorly fitted or top-dose-only effect, or another doubt; inactive = no such curve, though single readings can be large; an effect the other way counts as inactive or inconclusive.
# Chains of the proteins cited; added tags and fusions are not shown. Lines headed by an entry give the natural chain unless they say otherwise; changes in a name come on top.
# UniProt Q03181: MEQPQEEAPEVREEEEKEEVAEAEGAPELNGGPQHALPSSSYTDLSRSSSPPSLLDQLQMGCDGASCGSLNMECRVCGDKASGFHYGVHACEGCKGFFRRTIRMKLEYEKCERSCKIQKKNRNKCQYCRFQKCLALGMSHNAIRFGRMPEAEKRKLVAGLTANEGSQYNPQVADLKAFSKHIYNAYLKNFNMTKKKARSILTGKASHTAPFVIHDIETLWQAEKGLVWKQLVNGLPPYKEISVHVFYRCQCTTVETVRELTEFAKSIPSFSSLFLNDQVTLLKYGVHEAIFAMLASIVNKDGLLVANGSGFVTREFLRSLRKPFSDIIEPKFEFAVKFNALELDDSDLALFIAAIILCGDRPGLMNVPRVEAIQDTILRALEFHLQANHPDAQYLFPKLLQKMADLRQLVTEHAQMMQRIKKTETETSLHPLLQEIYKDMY
# UniProt P10828: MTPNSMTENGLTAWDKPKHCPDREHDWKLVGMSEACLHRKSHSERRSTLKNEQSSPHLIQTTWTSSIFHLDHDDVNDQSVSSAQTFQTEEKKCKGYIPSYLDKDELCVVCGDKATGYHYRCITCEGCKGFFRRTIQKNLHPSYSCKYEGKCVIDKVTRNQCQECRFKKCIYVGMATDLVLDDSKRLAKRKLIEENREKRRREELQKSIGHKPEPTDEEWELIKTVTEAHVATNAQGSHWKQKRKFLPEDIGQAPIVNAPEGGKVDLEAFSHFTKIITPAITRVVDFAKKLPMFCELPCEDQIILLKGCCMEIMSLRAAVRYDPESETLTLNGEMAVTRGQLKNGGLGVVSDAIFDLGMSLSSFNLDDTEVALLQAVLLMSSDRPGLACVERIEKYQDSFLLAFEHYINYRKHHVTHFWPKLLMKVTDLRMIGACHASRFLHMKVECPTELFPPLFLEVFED
# UniProt P01375, whole entry, looked up: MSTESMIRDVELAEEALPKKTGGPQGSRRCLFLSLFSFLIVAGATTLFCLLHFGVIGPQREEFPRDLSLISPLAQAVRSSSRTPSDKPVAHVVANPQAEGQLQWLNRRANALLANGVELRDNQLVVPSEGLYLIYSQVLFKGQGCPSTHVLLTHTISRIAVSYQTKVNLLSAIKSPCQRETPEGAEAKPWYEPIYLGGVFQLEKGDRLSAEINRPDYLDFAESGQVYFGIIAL
# UniProt P19793: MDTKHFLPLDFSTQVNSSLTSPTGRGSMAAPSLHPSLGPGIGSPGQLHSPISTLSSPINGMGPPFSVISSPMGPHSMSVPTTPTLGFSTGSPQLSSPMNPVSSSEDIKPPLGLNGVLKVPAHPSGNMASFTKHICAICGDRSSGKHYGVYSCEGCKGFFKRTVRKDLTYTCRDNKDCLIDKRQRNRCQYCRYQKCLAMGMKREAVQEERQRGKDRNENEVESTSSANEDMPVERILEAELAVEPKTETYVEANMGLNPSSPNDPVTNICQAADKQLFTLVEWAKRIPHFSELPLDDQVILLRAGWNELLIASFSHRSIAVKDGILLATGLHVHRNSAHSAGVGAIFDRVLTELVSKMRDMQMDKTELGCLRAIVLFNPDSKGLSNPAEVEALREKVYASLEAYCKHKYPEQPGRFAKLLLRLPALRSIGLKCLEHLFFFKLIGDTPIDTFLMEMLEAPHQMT
# Tests used:
# [1] = Cellular Toxicity (caspase-3) Mesangial (AID 660); settings: mesangial cells, normalized: DMSO 0%, 100 µM tamoxifen 100%; at 91.7 µM (top of the series);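 also: combined caspase 3 and 7 activity read by Caspase-Glo luminescence; cells exposed to compound for 16 h before the caspase read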
# How it was run: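 Luminescent Caspase-Glo 3/7 readout (aminoluciferin substrate cleavage, 20 min RT) after 16 h compound exposure at 37 °C of normal human mesangial cells. Signal increase normalized between DMSO basal and 100 uM tamoxifen; Hill-equation AC50.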
# [2] = MultiTox-Fluor Cytotoxicity Assay - LYMP1-002 - Dead Cells (AID 960); settings: LYMP1-002 lymphoblastoid cells, dead-cell protease fluorescence; cytotoxicity (dead cells): at 46.1 µM (top of the series); also: potency is read from the fitted curve at half-maximal effect; nearly all actives have a fitted effect of over 60% in size
# How it was run: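 Readout: fluorescence at 485/520 from cell-impermeant bis-AAF-R110 cleaved by proteases leaking from damaged cells. LYMP1-002 lymphoblastoid line, 16 hr compound treatment at 37 C, concentration-response in qHTS format; Hill-equation AC50 values.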
# [3] = target: Glucocorticoid receptor (Homo sapiens) (UniProt P04150); test: qHTS assay for small molecule antagonists of glucocorticoid receptor signaling (AID 588533; active = well fitted inhibition curve with a large enough effect in the signal ratio, with a control signal flat, not every such curve was filed as active; inconclusive = small, poorly fitted or top-dose-only effect, or effect the other way, or a change in a side signal; the % refers to the signal ratio;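 also: cells stimulated with 2 nM dexamethasone as agonist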); settings: HeLa MMTV-bla, GRE beta-lactamase ratio, antagonist mode, 18 h; activity change, negative = inhibition: at 76.8 µM (top of the series)
# [4] = target: Peroxisome proliferator-activated receptor delta (Homo sapiens) (UniProt Q03181); test: qHTS assay for small molecule antagonists of peroxisome proliferator-activated receptor delta signaling (AID 588535; active = well fitted inhibition curve with a large enough effect in the signal ratio, with a control signal flat, not every such curve was filed as active; inconclusive = small, poorly fitted or top-dose-only effect, or effect the other way, or a change in a side signal; inactive = no such curve, though single readings can be large or run the other way; the % refers to the signal ratio); settings: HEK293T PPARd-UAS-bla, beta-lactamase FRET ratio, 18 h; activity change, negative = inhibition: at 76.7 µM (top of the series) unless noted
# How it was run: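 Antagonist-mode qHTS using GeneBLAzer PPAR-delta-UAS-bla HEK293T cells; compound exposure 18 hrs at 37 C over a titration. Ratiometric CCF4 fluorescence at 460/530 nm; concentration-response points fitted to the Hill equation.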
# [5] = target: Peroxisome proliferator-activated receptor gamma (Homo sapiens) (UniProt P37231); test: qHTS assay for small molecule antagonists of peroxisome proliferator-activated receptor gamma signaling (AID 588537; active = well fitted inhibition curve with a large enough effect in the signal ratio, with a control signal flat, not every such curve was filed as active; inconclusive = small, poorly fitted or top-dose-only effect, or effect the other way, or a change in a side signal; the % refers to the signal ratio;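 also: reporter cells co-stimulated with 50 nM rosiglitazone agonist during compound treatment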); settings: HEK293 PPARg-UAS-bla, beta-lactamase ratio, antagonist mode; activity, negative = inhibition: at 76.8 µM (top of the series) unless noted
# How it was run: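 Cell-based beta-lactamase assay; GW9662 served as the antagonist control. Stimulation used rosiglitazone, final 50 nM, 16 h, 37 C.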
# [6] = target: Thyroid hormone receptor beta (Homo sapiens) (UniProt P10828); test: qHTS assay for small molecule antagonists of thyroid hormone receptor beta signaling (AID 588547; active = well fitted inhibition curve with a large enough effect in the signal ratio, with a control signal flat, not every such curve was filed as active; inconclusive = small, poorly fitted or top-dose-only effect, or effect the other way, or a change in a side signal; the % refers to the signal ratio; also: potency is read from the fitted curve at half-maximal effect;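 as to activity change % (negative = inhibition): cells stimulated with 0.4 nM T3 agonist during compound exposure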); settings: TR-UAS-bla HEK293, beta-lactamase ratio, antagonist mode, 18 h
# How it was run: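 Inhibition of T3-driven (0.4nM final) beta-lactamase reporter activity was measured over 0.59 nM to 92 uM compound after 18 h at 37 C. The cells were GripTite HEK293 TR-UAS-bla in charcoal/dextran-stripped serum, with CCF4 ratio read-out and IC50 from Hill fits.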
# [7] = qHTS assay for small molecule agonists of the antioxidant response element (ARE) signaling pathway (AID 651741; active = well fitted activation curve with a large enough effect in the signal ratio; inconclusive = small, poorly fitted or top-dose-only effect, or effect the other way, or a change in a side signal; the % refers to the signal ratio; also: potency is read from the fitted curve at half-maximal effect); settings: HepG2 ARE-bla reporter, beta-lactamase FRET ratio, 16 h; activation: at 96 µM (top of the series) unless noted
# How it was run: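 Agonist activity is measured as ARE-driven beta-lactamase expression in a stable HepG2 reporter line, using 16 h compound treatment at 37 C and a FRET substrate fluorescence readout after 2 h.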
# [8] = qHTS assay to identify small molecules that stimulate interleukin-8 (IL-8) secretion (AID 651758; active = well fitted activation curve with a large enough effect in the signal ratio; inconclusive = small, poorly fitted or top-dose-only effect, or effect the other way, or a change in a side signal; the % refers to the signal ratio; also: potency is read from the fitted curve at half-maximal effect); settings: HTRF ratio (665/615); activation: at 92.2 µM (top of the series)
# How it was run: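 Secreted IL-8 measured homogeneously by TR-FRET (two labelled anti-IL-8 antibodies, 1-3 h at room temperature) after a 16 h, 37 C compound treatment of THP-1 cells at 2000 cells/well.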
# [9] = Cell Viability - LYMP2-025 (AID 976); settings: LYMP2-025 lymphoblastoid cell viability; activity change, negative = cytotoxicity: at 92.2 µM (top of the series)
# How it was run: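 CellTiter-Glo luminescence (cellular ATP) after 24 h compound exposure at 37 C; LYMP2-025 human lymphoblastoid cells, 2500/well, complete medium. Tetraoctylammonium bromide positive control. AC50 by Hill equation fit of qHTS concentration-response.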
# [10] = Cell Viability - LYMP2-002 (AID 977)
# How it was run: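 Human lymphoblastoid cells (2500/well) in complete medium were preincubated 5 hr at 37 C, then exposed to compounds for 24 hr at 37 C. Intracellular ATP was read by CellTiter-Glo luminescence; AC50 came from Hill-equation concentration-response fits.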
# [11] = target: Peroxisome proliferator-activated receptor delta (Homo sapiens) (UniProt Q03181); test: qHTS assay for small molecule agonists of peroxisome proliferator-activated receptor delta signaling (AID 588534; calls by dose curve); settings: HEK293T PPARdelta-UAS-bla, beta-lactamase ratio, 18 h; activation: at 76.7 µM (top of the series) unless noted
# How it was run: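 Titration series tested in agonist mode on beta-lactamase reporter cells; 18 hrs at 37 C after a 5 hr pre-incubation. Readout: CCF4 fluorescence, 2 hrs RT. Hill equation gives EC50 and maximal response.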
# [12] = target: Thyroid hormone receptor beta (Homo sapiens) (UniProt P10828); test: qHTS assay for small molecule agonists of thyroid hormone receptor beta signaling (AID 588545; calls by dose curve); settings: TR-UAS-bla GripTite HEK 293, beta-lactamase ratio, agonist mode, 18 h; activation: at 76.7 µM, percent of T3 response, DMSO as zero
# How it was run: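 Beta-lactamase reporter activity under TR response element control is measured in HEK 293 cells after 18 hrs compound exposure. Signal is ratiometric CCF4 fluorescence, 460/530 nm.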
# [13] = target: Tumor necrosis factor (Homo sapiens) (UniProt P01375); test: qHTS assay to identify small molecules that stimulate Tumor Necrosis Factor-alpha (TNF-alpha) secretion (AID 651757; active = well fitted curve in the direction sought with a large enough effect in the signal ratio; inconclusive = small, poorly fitted or top-dose-only effect, or a change in a side signal; inactive = no such curve, though single readings can be large or run the other way; the % refers to the signal ratio); settings: Human cells, HTRF 665/615 ratio; activation (TNF-alpha secretion): at 92.2 µM (top of the series)
# How it was run: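 THP-1 cells, 3000/well; compound 17 hrs, 37 C; add cryptate/XL665 anti-TNF-alpha antibody pair; 3 hr RT; TR-FRET (HTRF) read of secreted TNF-alpha. Quantitative HTS format.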
# [14] = target: Peroxisome proliferator-activated receptor gamma (Homo sapiens) (UniProt P37231); test: qHTS assay for small molecule agonists of peroxisome proliferator-activated receptor gamma signaling (AID 588536; active = well fitted curve in the direction sought with a large enough effect in the signal ratio, with a control signal flat, not every such curve was filed as active; inconclusive = small, poorly fitted or top-dose-only effect, or effect the other way, or a change in a side signal; inactive = no such curve, though single readings can be large or run the other way; the % refers to the signal ratio); settings: HEK293 PPARg-UAS-bla, beta-lactamase ratio, 16 h; activation: at 76.7 µM (top of the series), percent of rosiglitazone response, DMSO as zero
# How it was run: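 Cells were plated and held 6–6.5 h at 37 C, then compounds were added as a titration series. After a further 16 h, CCF4 dye was loaded for 2 h at room temperature and emission at 460/530 nm recorded.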
# [15] = target: Retinoic acid receptor RXR-alpha (Homo sapiens) (UniProt P19793); test: qHTS assay for small molecule agonists of retinoid X receptor alpha signaling (AID 588544; calls by dose curve); settings: HEK293T RXRa-UAS-bla, beta-lactamase reporter, 18 h; activation: at 76.7 µM (top of the series)
# [16] = target: Retinoic acid receptor RXR-alpha (Homo sapiens) (UniProt P19793); test: qHTS assay for small molecule antagonists of retinoid X receptor alpha signaling (AID 588546; active = well fitted inhibition curve with a large enough effect in the signal ratio, with a control signal flat, not every such curve was filed as active; inconclusive = small, poorly fitted or top-dose-only effect, or effect the other way, or a change in a side signal; inactive = no such curve, though single readings can be large or run the other way; the % refers to the signal ratio;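 also: cells stimulated with 9-cis-retinoic acid as agonist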); settings: HEK293T RXRa-UAS-bla, beta-lactamase ratio, antagonist mode
# How it was run: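 Beta-lactamase reporter inhibition, read as CCF4 fluorescence ratio (ex 405, em 460/530 nm) after 2 h at RT. HEK293T UAS-bla cells, 2500/well, were stimulated with 9-cis-RA at 500 or 100 nM final alongside test compound for 18 h at 37 C.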
compound,measurement,setting,value
FC(F)(F)c1ccccc1Cl,caspase-3 activation,[1],inactive: 1.05%
same,Potency,[2],"inconclusive: 0.0316 µM [cytotoxic, full curve, poor fit]"
same,"activity change, negative = inhibition",[3],inconclusive: -20.6%
same,Potency,[4],inactive
same,Potency,[5],inactive
same,activity change % (negative = inhibition),[6],inconclusive: 14.4%
same,Potency,[7],inactive
same,Potency,[8],"inconclusive: 75 µM [rising, single point]"
CCCC=O,Potency,[9],inactive
same,Potency,[10],inactive
same,Potency,[11],inactive
same,"activity, negative = inhibition",[5],inconclusive: 9.25%
same,activation,[12],inconclusive: -43.2%
same,Potency,[7],"inconclusive: 66.8 µM [side channel, falling, partial curve, poor fit]"
same,Potency,[13],inactive
CCCCCCCC/C=C\CCCCCCCC(=O)OC,Potency,[3],inactive
same,Potency,[5],inactive
same,activation,[7],inconclusive: 13.4%
O=C(O)CCCCCCC(=O)O,Potency,[3],inactive
same,Potency,[14],inactive
same,Potency,[6],"inconclusive: 0.0126 µM [cytotoxic, side channel, full curve, poor fit]"
same,activation,[7],inconclusive: 15.8%
C[Si](C)(C)O[Si](C)(C)O[Si](C)(C)C,Potency,[11],inactive
same,Potency,[15],inactive
same,max response,[16],inactive: -6.04%
same,Potency,[7],"inconclusive: 19.3 µM [inhibitor, full curve, poor fit]"

# Taken from the results shown (2 entries):
compound,measurement,setting,value
CCCCCCCC/C=C\CCCCCCCC(=O)OC,Potency,[5],inactive
same,activation,[7],inconclusive: 13.4%

# Source: PubChem BioAssay (NCATS)
